Article doi:10.1101/608976
These are yes or no findings as the source states them, for the method shown. Binding seen in cells or lysates may run through a third protein. Some entries that bind do so weakly or less than the wild type. For some assays here: Where a sequence is shown, tags or fusion partners need not be part of it.

Key:
[1] = target: Cas1(Q287A/I291G), C-terminal tail mutant, StrepII-tagged (E. coli) (UniProt Q46896); experiment: pull-down + SEC
[2] = target: T1, Cas1 (wild type, E. coli type I-E), StrepII-tagged (E. coli) (UniProt Q46896); experiment: pull-down + SEC
T1 sequence: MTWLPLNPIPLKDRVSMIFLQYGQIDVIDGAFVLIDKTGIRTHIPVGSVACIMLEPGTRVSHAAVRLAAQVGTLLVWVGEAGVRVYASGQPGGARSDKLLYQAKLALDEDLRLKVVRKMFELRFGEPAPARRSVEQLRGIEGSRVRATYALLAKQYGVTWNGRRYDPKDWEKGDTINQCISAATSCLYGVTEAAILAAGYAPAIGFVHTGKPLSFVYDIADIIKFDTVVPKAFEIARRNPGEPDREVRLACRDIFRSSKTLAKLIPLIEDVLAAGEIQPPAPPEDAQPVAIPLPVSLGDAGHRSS

B1: Cas2 (E. coli type I-E) (protein, UniProt P45956 1-94)
chain: MSMLVVVTENVPPRLRGRLAIWLLEVRAGVYVGDVSAKIREMIWEQIAGLAEEGNVVMAWATNTETGFEFQTFGLNRRTPVDLDGLRLVSFLPV
**Q.** B1 was tested. Which binding [1] did it give?
**A.** binds

**Q.** And the binding [2]?
**A.** binds
